This data set is described as follows: in vitro. To be noted: human, microsomes, CLint(liver). As to the method:
Microsome stability was determined in human, rat, and mouse, liver microsomes. Compound at 3 μM final concentration along with 0.5 mg/mL microsome protein and 1 mM NADPH was incubated for 0, 5, 15, 30 and 60 min. As a negative control, test compound was incubated with microsomes in the absence of NADPH. Samples were quenched with methanol and centrifuged for 25 min at 2500 rpm to precipitate proteins. Supernatants were analyzed (N=3) by LC-MS/MS. The In peak area ratio (compound peak area/internal standard peak area) was plotted against time and the gradient of the line determined the elimination rate constant [k=(−1)(slope)].
R^2 is the correlation coefficient of the linear regression for the determination of kinetic constant. T1/2 is the half life and CLint (mic) is the intrinsic clearance. CLint(liver)=CLint (mic)*mg microsomal protein/g liver weight*g liver weight/kg body weight. Liver weight/kg body weight is 20 g/kg for human.

By CLint scaled is commonly meant a measure of how fast metabolising enzymes remove a compound, apart from limits set by blood flow. A higher CLint scaled goes with rapid turnover. Regarding `CCCNCC(O)COc1ccccc1C(=O)CCc1ccccc1` (stereo not shown) [Propafenone], the CLint scaled at 3 μM was found to be 143 mL/min/kg.
